Earlier results, collected in patent US20230139565A1 (GLANIS PHARMACEUTICALS, INC., priority 2020, published 2023).
Some entries share one result that the patent states for a list of compounds.

Details: animal study; lung vs plasma

CCN(CC)CCCC(C)Nc1ccnc2cc(Cl)ccc12 (stereo not shown) [CQ, chloroquine]
concentration in lung relative to plasma: 6-7 times
